Measurements published in the supplement of paper PMC7125110.
± gives the standard error. The uncertainty is large for many entries.

B1: glmS ribozyme (parent)
chain: AUAAAAGCGCCAGAACUACAGAAAUGUAGUUGACGAGGAGGAGGUUUAUCGAAUUUUCGGCGGAUGCCUCCAAA

Variants of: B1
Test: self-cleavage kobs at 10000 uM GlcN6P; higher = faster cleavage; RNA array
Conditions: with glucosamine-6-phosphate
Procedure, shortened: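 kcat and KM were obtained from weighted Michaelis–Menten fits across concentrations of kobs values. Those came from one- or two-exponential decay fits to per-tile medians normalised to baseline and to non-cleaving reference variants. The variants were barcoded ribozymes transcribed in situ by E. coli RNA polymerase on sequenced MiSeq chips and tracked through a hybridised Cy3 probe at 37 °C, with 40 μM to 10 mM glucosamine-6-phosphate in HEPES/KCl/Mg(OAc)2 buffer flowed in.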

Variant	self-cleavage kobs at 10000 uM GlcN6P [s⁻¹]
U56G U69C C70A	3.12e-05 ± 2.3e-05
G38U C50U G51C U69A	3.04e-05 ± 2.3e-05
G41A U69C	2.32e-05 ± 1.4e-05
U55G U57A C70A	2.81e-05 ± 1.6e-05
A48C U65C	3.15e-05 ± 1.6e-05
C58G A64G C68A	2.7e-05 ± 1.6e-05
G40U U56A U57A	1.82e-05 ± 1.3e-05
A42G U46C A48U	3.19e-05 ± 2e-05
U55C U57G	3.57e-05 ± 1.9e-05
U47G U54G G62U C67G C70A	3.35e-05 ± 2.1e-05
U46G A48G G66A	2.64e-05 ± 1.7e-05
A39G C67U C70G	2.28e-05 ± 1.8e-05
G44A A52U	2.19e-05 ± 1.4e-05
C50A C70U C71G	2.9e-05 ± 1.7e-05
A48G U54A C61U	3.08e-05 ± 2.5e-05
U45A G66U C70G C71A	2.4e-05 ± 2.4e-05
U45A C68A	2.69e-05 ± 1.7e-05
C50G G63A	1.67e-05 ± 1.3e-05
A36U U69G C71U	2.77e-05 ± 2.2e-05
A53U U65C C71A	3.46e-05 ± 2.9e-05
C58G C71G	1.85e-05 ± 1.6e-05

Look-ups from above.
Value for G44A A52U under self-cleavage kobs at 10000 uM GlcN6P [s⁻¹]: 2.19e-05 ± 1.4e-05
Value for A42G U46C A48U under self-cleavage kobs at 10000 uM GlcN6P [s⁻¹]: 3.19e-05 ± 2e-05

Looked up one by one from the list above (2):
Variant	self-cleavage kobs at 10000 uM GlcN6P [s⁻¹]
C50A C70U C71G	2.9e-05 ± 1.7e-05
U45A G66U C70G C71A	2.4e-05 ± 2.4e-05

(listing goes on)

Variant	self-cleavage kobs at 10000 uM GlcN6P [s⁻¹]
U54A C70A	0.00125 ± 0.0009
G37C U56A	3.24e-05 ± 1.7e-05
C50G U57A G63U A64U	2.24e-05 ± 1.7e-05
A48G U65A C70U	2.71e-05 ± 1.5e-05
A48G G59U	3.02e-05 ± 1.8e-05
C58A A64G C71A	2.39e-05 ± 2.1e-05
U47G A53C C58A	3.14e-05 ± 1.8e-05
G41C G66U	2.26e-05 ± 1.4e-05
G60A A64G	1.97e-05 ± 1e-05
A39C G40C U47C	2.95e-05 ± 2e-05
U49G A53U U56A C67A C70A	3.42e-05 ± 2e-05
U45A U69G	4.2e-05 ± 2.2e-05
A39C C70G	1.37e-05 ± 1.3e-05
C50A U56G C70A	2.17e-05 ± 1.3e-05
G44U A52G	2.22e-05 ± 2e-05
C50G C61U C70G	2.02e-05 ± 1.7e-05
U56C G66U C70U	2.59e-05 ± 1.8e-05
U49A A53G	1.68e-05 ± 1.2e-05
U49G A52U	1.5e-05 ± 1.1e-05
U55C G60A	1.32e-05 ± 1.2e-05
U55G C61A G66C C70A	3.37e-05 ± 1.8e-05

Variant	self-cleavage kobs at 10000 uM GlcN6P [s⁻¹]
A42C U55C	3.07e-05 ± 1.7e-05
G38U C71G	1.67e-05 ± 1.6e-05
G40C C58A	1.29e-05 ± 9.1e-06
C58G C67U C71G	2.46e-05 ± 1.7e-05
U56C G59A	2.07e-05 ± 1.1e-05
U56A C68A	1.81e-05 ± 1.1e-05
U65G C67A C70G	1.77e-05 ± 1.4e-05
C50U G62A C70A	2.12e-05 ± 1.8e-05
A52G U69G	2.37e-05 ± 1.3e-05
U49A U56A C70A C71U	2.43e-05 ± 2.3e-05
G43U C68U C70U	1.66e-05 ± 1.4e-05
A42U A53G C70G	1.79e-05 ± 1.1e-05
G37A G41C	1.64e-05 ± 1.2e-05
A36G A64G	1.95e-05 ± 1.2e-05
G37A C50G C58A C67A C71U	2.02e-05 ± 1.4e-05
A48U C50G C67A C68U	2.31e-05 ± 2.2e-05
U55C C61U	2.49e-05 ± 1.4e-05
C50G G62U U65G	2.12e-05 ± 2e-05
G44C C68U	5.27e-05 ± 2.9e-05
U46C G59U	1.3e-05 ± 7.4e-06
C50U C70G	1.24e-05 ± 1.1e-05

Variant	self-cleavage kobs at 10000 uM GlcN6P [s⁻¹]
C50A C58G U65G C68A C71G	2.5e-05 ± 1.8e-05
C50A G63U C70G	2.2e-05 ± 2.2e-05
U45A C50U U54G	2.24e-05 ± 2e-05
U45G A52C	2.14e-05 ± 1.5e-05
A39C G40A A53G U65G	4.48e-05 ± 3.3e-05
C68G C71G	1.8e-05 ± 9.7e-06
A36G U69G	1.57e-05 ± 1.6e-05
C58G G66C	2.13e-05 ± 1.2e-05
C50A C68G	1.4e-05 ± 1.2e-05
G43A U46G	1.56e-05 ± 1.3e-05
A53U C68A	1.52e-05 ± 1.2e-05
U57A U65A	2.34e-05 ± 2.1e-05
A42U U65A C70U	2.09e-05 ± 2e-05
A48G C58G	2.63e-05 ± 1.4e-05
G43A U55C	3.23e-05 ± 1.6e-05
U55G U57C G66C C70G C71A	2.97e-05 ± 1.6e-05
G41A U55A	0.0058 ± 0.004
A39C U57C	1.66e-05 ± 9.5e-06
A39C U57A	1.66e-05 ± 1.2e-05
A39U U54G C58U	2.07e-05 ± 1.2e-05
